Source: PubChem BioAssay AID1259308 (NCATS, 2017)
Here is a random part of about 59,000 reagents tested. About 1,510 of all reagents (2.6%) count as active. 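Calls use total luciferase alone and ignore viability, so some active siRNAs may act by altering cell number.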 Reagents against one gene are numbered here. Further read-outs or replicates are left out here. No sequences are given here.

Aim: 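Knock-downs that increase output of a recombinant reporter protein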 (primary screen)
Cells: human HEK293 embryonic kidney cells stably expressing firefly luciferase (HEK-CMV-Luc2-Hygro)
Knock-down reagent: single siRNA against human genes, 0.8 pmol siRNA per well
Duration: 72 h
Detection: 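Luciferase light (ONE-Glo) measured on one replicate plate set and viability (CellTiter-Glo) on the other, scaled to a negative control siRNA, with robust z-scores and luciferase per cell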
Direction: total luciferase, z-score and total luciferase, % of control: higher = more reporter protein produced; luciferase per cell, z-score: higher = more reporter output per viable cell
Hit rule: 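Active when the median/MAD z-score for overall luciferase is greater than 3; a gene was taken forward for validation with new siRNAs if at least two of its three siRNAs passed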
Calls: active = raised luciferase; inactive = no rise

total luciferase, z-score	total luciferase, % of control	luciferase per cell, z-score	call	gene symbol	reagent
1.99	122	0.937	inactive	JCHAIN (GeneID 3512)	1
0.168	85.2	-0.217	inactive	JCHAIN (GeneID 3512)	2
2.05	123	0.766	inactive	JCHAIN (GeneID 3512)	3
-0.0539	80.8	0.722	inactive	KRTAP12-1 (GeneID 353332)	1
-0.206	77.8	0.11	inactive	KRTAP12-1 (GeneID 353332)	2
5.25	186	4.55	active	KRTAP12-1 (GeneID 353332)	3
-0.13	79.3	-0.378	inactive	OR1L8 (GeneID 138881)	1
1.06	103	0.895	inactive	OR1L8 (GeneID 138881)	2
0.223	86.3	-0.383	inactive	OR1L8 (GeneID 138881)	3
1.14	105	0.477	inactive	C2CD5 (GeneID 9847)	1
0.0539	83	0.347	inactive	C2CD5 (GeneID 9847)	2
-0.697	68	-0.454	inactive	C2CD5 (GeneID 9847)	3
-2.1	40.1	-1.83	inactive	EMC10 (GeneID 284361)	1
-0.56	70.7	-0.0738	inactive	EMC10 (GeneID 284361)	2
-0.948	63	-1.25	inactive	EMC10 (GeneID 284361)	3
0.563	93.1	0.833	inactive	PHYHIP (GeneID 9796)	1
-1.96	42.9	-0.656	inactive	PHYHIP (GeneID 9796)	2
-1.63	49.6	1.18	inactive	PHYHIP (GeneID 9796)	3
-0.479	72.4	0.629	inactive	LINC01220 (GeneID 731223)	1
-0.474	72.5	0.548	inactive	LINC01220 (GeneID 731223)	2
1.03	102	1.44	inactive	LINC01220 (GeneID 731223)	3
-0.0665	80.6	-0.191	inactive	C7orf57 (GeneID 136288)	1
-0.362	74.7	-0.179	inactive	C7orf57 (GeneID 136288)	2
3	142	2.67	active	C7orf57 (GeneID 136288)	3
-0.992	62.2	0.0493	inactive	CANX (GeneID 821)	1
-0.443	73.1	-0.588	inactive	CANX (GeneID 821)	2
-0.148	78.9	0.000246	inactive	CANX (GeneID 821)	3
-0.0966	80	-0.44	inactive	IL9 (GeneID 3578)	1
-3	22.2	-4.17	inactive	IL9 (GeneID 3578)	2
-1.51	51.9	-1.42	inactive	IL9 (GeneID 3578)	3
-0.397	74	1.28	inactive	SYT7 (GeneID 9066)	1
2.02	122	2.64	inactive	SYT7 (GeneID 9066)	2
1.07	103	1.95	inactive	SYT7 (GeneID 9066)	3

3 entries from above in another layout:
IL9 (GeneID 3578) #2: total luciferase, z-score = -3; total luciferase, % of control = 22.2; luciferase per cell, z-score = -4.17; call = inactive
IL9 (GeneID 3578) #3: total luciferase, z-score = -1.51; total luciferase, % of control = 51.9; luciferase per cell, z-score = -1.42; call = inactive
SYT7 (GeneID 9066) #1: total luciferase, z-score = -0.397; total luciferase, % of control = 74; luciferase per cell, z-score = 1.28; call = inactive

Continued:
total luciferase, z-score	total luciferase, % of control	luciferase per cell, z-score	call	gene symbol	reagent
0.687	95.5	0.281	inactive	NEFL (GeneID 4747)	1
-0.195	78	0.379	inactive	NEFL (GeneID 4747)	2
-0.152	78.9	0.529	inactive	NEFL (GeneID 4747)	3
-0.797	66	-0.174	inactive	VEGFD (GeneID 2277)	1
-1.17	58.7	-1.39	inactive	VEGFD (GeneID 2277)	2
-0.243	77.1	-0.464	inactive	VEGFD (GeneID 2277)	3
0.467	91.2	0.766	inactive	NIPBL-DT (GeneID 646719)	1
0.125	84.4	-0.109	inactive	NIPBL-DT (GeneID 646719)	2
0.634	94.5	0.339	inactive	NIPBL-DT (GeneID 646719)	3
1.06	103	0.469	inactive	USP25 (GeneID 29761)	1
-1.38	54.4	-1.75	inactive	USP25 (GeneID 29761)	2
2.05	123	1.92	inactive	USP25 (GeneID 29761)	3
0.219	86.2	0.542	inactive	CHD7 (GeneID 55636)	1
0.818	98.1	-0.184	inactive	CHD7 (GeneID 55636)	2
0.0812	83.5	-0.0641	inactive	CHD7 (GeneID 55636)	3
0.993	102	0.427	inactive	LMTK2 (GeneID 22853)	1
0.342	88.7	0.0954	inactive	LMTK2 (GeneID 22853)	2
0.916	100	1.54	inactive	LMTK2 (GeneID 22853)	3
-0.437	73.2	0.943	inactive	RMP24 (GeneID 83608)	1
-0.194	78	-0.439	inactive	RMP24 (GeneID 83608)	2
-1.64	49.3	0.268	inactive	RMP24 (GeneID 83608)	3
0.185	85.6	-0.0548	inactive	MYPN (GeneID 84665)	1
-0.852	64.9	0.267	inactive	MYPN (GeneID 84665)	2
-0.734	67.3	-0.193	inactive	MYPN (GeneID 84665)	3
0.253	86.9	1.21	inactive	MYOM1 (GeneID 8736)	1
0.104	84	0.292	inactive	MYOM1 (GeneID 8736)	2
-0.751	67	-0.648	inactive	MYOM1 (GeneID 8736)	3
-1.37	54.6	-0.796	inactive	PTPN11 (GeneID 5781)	1
-0.879	64.4	-1.53	inactive	PTPN11 (GeneID 5781)	2
0.583	93.5	-0.254	inactive	PTPN11 (GeneID 5781)	3
0.286	87.6	0.625	inactive	EIF1AY (GeneID 9086)	1
0.0476	82.8	-0.54	inactive	EIF1AY (GeneID 9086)	2
1.67	115	0.962	inactive	EIF1AY (GeneID 9086)	3
0.908	99.9	0.713	inactive	ADORA3 (GeneID 140)	1
3.88	159	1.42	active	ADORA3 (GeneID 140)	2
-1.28	56.4	-1.46	inactive	ADORA3 (GeneID 140)	3
3.07	143	3.56	active	CYTOR (GeneID 112597)	1
-0.742	67.1	0.534	inactive	CYTOR (GeneID 112597)	2
-1.04	61.3	-1.43	inactive	CYTOR (GeneID 112597)	3
2.55	133	1.84	inactive	FYTTD1 (GeneID 84248)	1
-0.578	70.4	0.0376	inactive	FYTTD1 (GeneID 84248)	2
2.19	125	2.03	inactive	FYTTD1 (GeneID 84248)	3
